Assay results published in US10753934B2, “Kits suitable for use in electrochemiluminescence methods and methods of effecting a specific-binding non-wash assay” (Meso Scale Technologies, priority 2001, dated 2020).

How the values were obtained:
[1] = ECL activity of tertiary amines as coreactants, streptavidin-coated NPT plates (Table IIa)
[2] = ECL activity of tertiary amines as coreactants, streptavidin-coated PT plates (Table IIb)
[3] = NPT plates, 0.3 nM Bt-IgG* bound, washed
[4] = NPT plates, 10 nM IgG* in solution
[5] = NPT plates, 200 mM tertiary amine, 200 mM phosphate, 0.1% Triton X-100, pH 7.5
[6] = PT plates, 0.3 nM Bt-IgG* bound, washed
[7] = PT plates, 10 nM IgG* in solution
[8] = PT plates, 200 mM tertiary amine, 200 mM phosphate, 0.1% Triton X-100, pH 7.5

| SMILES | Bound/Background ([1]; NPT plates) | Bound/Free ([1]; NPT plates) | ECL Bound [1, 3] | ECL Free [1, 4] | ECL Background [1, 5] | Bound/Background ([2]; PT plates) | Bound/Free ([2]; PT plates) | ECL Bound [2, 6] | ECL Free [2, 7] | ECL Background [2, 8] | Bound/Background [1] | Bound/Free [1] | ECL Bound [1] | ECL Free [1] | ECL Background ([1]; pH 7.5) | Bound/Background [2] | Bound/Free [2] | ECL Bound [2] | ECL Free [2] | ECL Background ([2]; pH 7.5) |
| --- | --- | --- | --- | --- | --- | --- | --- | --- | --- | --- | --- | --- | --- | --- | --- | --- | --- | --- | --- | --- |
| O=S(=O)(O)CC(O)CN1CCN(CC(O)CS(=O)(=O)O)CC1 (stereo not drawn) [Piperazine-N,N′-bis(2-hydroxypropane)sulfonic acid] | 306 | 50 | 86494 | 1995 | 283 | 11 | 11 | 3842 | 657 | 338 |  |  |  |  |  |  |  |  |  |  |
| O=S(=O)(O)CCN1CCN(CCS(=O)(=O)O)CC1 [piperazine-N,N′-bis(2-ethanesulfonic acid)] | 254 | 67 | 41418 | 777 | 163 | 19 | 34 | 5560 | 452 | 297 |  |  |  |  |  |  |  |  |  |  |
| CCCN(CCC)CCCN(CCC)CCC [N,N,N′,N′-tetrapropylpropane-1,3,-diamine] | 139 | 17 | 36137 | 2397 | 260 | 40 | 12 | 9468 | 983 | 237 |  |  |  |  |  |  |  |  |  |  |
| CC(O)CN(C)C (stereo not drawn) [1-Dimethylamino-2-propanol] | 30 | 8 | 22446 | 3463 | 741 | 13 | 8 | 6903 | 1332 | 545 |  |  |  |  |  |  |  |  |  |  |
| O=S(=O)(O)CCNC(CO)(CO)CO [N-tris(hydroxymethyl)methyl-2-aminoethane sulfonic acid] | 57 | 30 | 16062 | 804 | 282 | 9 | 21 | 3050 | 455 | 324 |  |  |  |  |  |  |  |  |  |  |
| O=S(=O)(O)CCN(CCO)CCO [N,N-bis(2-hydroxyethyl)-2-aminoethane sulfonic acid] | 35 | 49 | 2009 | 97 | 57 | 6 | 87 | 636 | 118 | 112 |  |  |  |  |  |  |  |  |  |  |
| O=S(=O)(O)CCCN1CCN(CCO)CC1 [3-[4-(2-hydroxyethyl)piperazin-1-yl]propane-1-sulfonic acid] | 368 | 59 | 79148 | 1545 | 215 | 6 | 9 | 803 | 207 | 132 |  |  |  |  |  |  |  |  |  |  |
| CN(C)CCCO [3-Dimethylamino-1-propanol] | 78 | 7 | 18403 | 2946 | 236 | 26 | 6 | 5414 | 1079 | 207 |  |  |  |  |  |  |  |  |  |  |
| O=S(=O)(O)CCCN1CCCCCC1 [Homopiperidine-N-3-propanesulfonic acid] | 13 | 1 | 11683 | 13833 | 921 | 32 | 4 | 14130 | 4347 | 447 |  |  |  |  |  |  |  |  |  |  |
| COC(=O)CCN1CCN(CCO)CC1 [Piperazine-N-2-hydroxyethane-N′-3-methylpropanoate] |  |  |  |  |  |  |  |  |  |  | 96 | 58 | 12346 | 340 | 128 | 10 | 19 | 1624 | 234 | 155 |
| O=C(O)CN(CCCCCCN(CC(=O)O)CC(=O)O)CC(=O)O [1,6-diaminohexane-N,N,N′,N′-tetraacetic acid] | 62 | 14 | 29011 | 2522 | 471 | 20 | 10 | 7898 | 1160 | 389 |  |  |  |  |  |  |  |  |  |  |
| O=S(=O)(O)CC(O)CN1CCN(CCO)CC1 (stereo not drawn) [2-hydroxy-3-[4-(2-hydroxyethyl)piperazin-1-yl]propane-1-sulfonic acid] | 364 | 65 | 81888 | 1482 | 225 | 5 | 9 | 749 | 207 | 142 |  |  |  |  |  |  |  |  |  |  |
| O=S(=O)(O)CCCCN(CCO)CCO [N,N-bis-(hydroxyethyl)-N-4-aminobutanesulfonic acid] | 19 | 6 | 27561 | 5541 | 1446 | 19 | 34 | 5560 | 452 | 297 |  |  |  |  |  |  |  |  |  |  |
| CCCN(CCC)CCCCS(=O)(=O)O [N,N-bis propyl-N-4-aminobutanesulfonic acid] | 88 | 4 | 49778 | 13795 | 564 | 67 | 5 | 16465 | 3685 | 247 |  |  |  |  |  |  |  |  |  |  |
| O=S(=O)(O)CCN1CCN(CCO)CC1 [N-2-Hydroxypiperazine-N-2-ethanesulfonic acid] | 432 | 21 | 73897 | 3716 | 171 | 29 | 19 | 4233 | 363 | 148 |  |  |  |  |  |  |  |  |  |  |
| O=S(=O)(O)CCCCN1CCN(CCCCS(=O)(=O)O)CC1 [Piperazine-N,N′-bis-4-butanesulfonic acid] | 115 | 61 | 12490 | 311 | 109 | 7 | 16 | 750 | 152 | 111 |  |  |  |  |  |  |  |  |  |  |
| O=S(=O)(O)CCCN1CCCCC1 [Piperidine-N-3-propanesulfonic acid] |  |  |  |  |  |  |  |  |  |  | 19 | 7 | 16067 | 9417 | 861 | 16 | 3 | 6148 | 2234 | 376 |
| COC(=O)CCN1CCN(CCC(=O)OC)CC1 [Piperazine-N,N′-bis-3-methylpropanoate] |  |  |  |  |  |  |  |  |  |  | 71 | 40 | 5377 | 210 | 76 | 10 | 15 | 1807 | 287 | 182 |
| O=S(=O)(O)CCCN1CCOCC1 [(3-[N-Morphilino)-3-propanesulfonic acid] | 33 | 12 | 5857 | 658 | 177 | 14 | 42 | 4221 | 388 | 294 |  |  |  |  |  |  |  |  |  |  |
| O=S(=O)(O)CCCN1CCN(CCCS(=O)(=O)O)CC1 [Piperazine-N,N′-bis-3-propanesulfonic acid] | 134 | 45 | 12318 | 362 | 92 | 6 | 13 | 499 | 120 | 88 |  |  |  |  |  |  |  |  |  |  |
| OCC(CO)(CO)NCCCNC(CO)(CO)CO [1,3-Bis[tris(hydroxymethyl)methylamino]propane] | 245 | 12 | 61712 | 5207 | 252 | 14 | 12 | 2559 | 382 | 181 |  |  |  |  |  |  |  |  |  |  |
